# Primary screen of a compound library

The chains behind the UniProt entries cited, without tags or fusion partners. Residues count along the entry.
UniProt Q8IDJ8, 1-583: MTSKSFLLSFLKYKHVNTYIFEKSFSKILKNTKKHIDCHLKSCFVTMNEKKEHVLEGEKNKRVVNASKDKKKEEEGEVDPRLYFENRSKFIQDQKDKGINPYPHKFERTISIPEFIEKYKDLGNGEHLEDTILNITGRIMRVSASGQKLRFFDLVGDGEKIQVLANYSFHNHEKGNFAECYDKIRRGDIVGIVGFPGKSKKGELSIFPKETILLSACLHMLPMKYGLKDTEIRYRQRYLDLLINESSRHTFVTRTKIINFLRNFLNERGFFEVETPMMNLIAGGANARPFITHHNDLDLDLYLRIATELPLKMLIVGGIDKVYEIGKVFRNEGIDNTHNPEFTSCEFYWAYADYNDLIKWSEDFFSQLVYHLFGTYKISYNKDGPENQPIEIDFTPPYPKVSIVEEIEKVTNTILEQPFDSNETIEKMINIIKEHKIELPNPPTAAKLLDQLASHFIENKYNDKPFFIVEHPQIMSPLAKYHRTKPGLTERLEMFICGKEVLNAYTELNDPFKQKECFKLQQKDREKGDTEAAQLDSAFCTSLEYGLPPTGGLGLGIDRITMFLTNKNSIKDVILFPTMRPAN
UniProt A4I591, 1-473: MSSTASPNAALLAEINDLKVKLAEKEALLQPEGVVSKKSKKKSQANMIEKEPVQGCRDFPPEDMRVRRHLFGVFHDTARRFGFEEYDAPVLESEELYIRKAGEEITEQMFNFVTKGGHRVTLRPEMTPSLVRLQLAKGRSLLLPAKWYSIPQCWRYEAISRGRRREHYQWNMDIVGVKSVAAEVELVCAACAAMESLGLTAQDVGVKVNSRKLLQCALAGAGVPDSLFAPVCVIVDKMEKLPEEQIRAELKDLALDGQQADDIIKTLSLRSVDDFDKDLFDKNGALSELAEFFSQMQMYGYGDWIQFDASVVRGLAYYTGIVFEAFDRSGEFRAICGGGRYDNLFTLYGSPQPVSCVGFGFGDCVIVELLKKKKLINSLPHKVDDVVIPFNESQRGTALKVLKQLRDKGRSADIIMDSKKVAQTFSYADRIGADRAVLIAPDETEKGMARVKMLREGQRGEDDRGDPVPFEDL

A: 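Cell assay of Leishmania donovani living inside macrophages; the read-out is not stated. Compounds at 30 µM. Higher reads as stronger inhibition (inferred: compounds with an IC50 in retests scored well above the rest). Of about 69,000 compounds tested this way, about 1,000 (1.5%) reached 50% or more in at least one test.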
B: 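Lysine-tRNA ligase, Plasmodium falciparum 3D7 (UniProt Q8IDJ8). Enzyme assay of the cytosolic lysyl-tRNA synthetase in 384-well plates, read by luminescence. Concentration: 30 µM. Higher reads as stronger inhibition, judged from the few compounds that gave an IC50. Of about 69,000 compounds tested this way, about 49 (0.071%) reached 50% or more in at least one test.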
C: 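Enzyme assay of histidyl-tRNA synthetase; the read-out is not stated. Target: Histidine-tRNA ligase, Leishmania infantum (UniProt A4I591). Concentration: 30 µM. Direction is inferred from retests: higher values go with stronger inhibition. The assay is labelled LdHisRS but filed under L. infantum. Of about 69,000 compounds tested this way, about 410 (0.6%) reached 50% or more in at least one test.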

The filed quantity is “Percent Effect” (%). The controls that fix the scale are not given in the record; negative values are as filed. This is an unselected part of the compounds tested. Two or more numbers in one place are separate tests of the same structure; such repeats can differ widely. A dash means the value is not listed here; it may have been measured.

| # | Compound | A | B | C |
|---|---|---|---|---|
| 1 | `CC(C)N1CCOC(c2cc(CCO)[nH]n2)C1` (stereo not given) | 19.2 | -0.5549 | 7.246 |
| 2 | `Cc1nc(C2CCCN(C(=O)c3cc(C(C)(C)C)on3)C2)no1` (stereo not given) | -6.862 | 1.026 | 1.786 |
| 3 | `CCCC1(CO)CCCN(c2ncccc2F)C1` (stereo not given) | 2.047 | 2.012 | 13.46 |
| 4 | `CCN1Cc2ccccc2N(C(=O)C2CCC2)CCC1=O` | 1.632 | 2.214 | 20.41 |
| 5 | `CS(=O)(=O)NCC1OCCc2cn(CC3CC3)nc21` (stereo not given) | -6.553 | -9.446 | 26.32 |
| 6 | `[H][C@]12CC[C@]([H])(CN(C(=O)Nc3ccccc3C(F)(F)F)C1)N(C)C2=O` | 24.56 | - | - |
| 7 | `[H][C@@]12CN(C(=O)c3cccn3C)C[C@]1([H])C(=O)N(CC)C2` | -20.79 | - | - |
| 8 | `CC(C)OC(=O)N1CCCCC1CCn1cccn1` (stereo not given) | 37.08 | 3.674 | 8.901 |
| 9 | `NC(=O)NC(=O)CCN1CCCN(c2nccs2)CC1` | 14.45 | 6.544 | 17.57 |
| 10 | `O=C(c1ccc(=O)[nH]c1)N1C[C@@H]2CC[C@H](C1)N(Cc1ccccc1)C2` | - | 6 | 9.574 |
| 11 | `CN(C)CC1COCCN1C(=O)C1(c2cccs2)CCCC1.O=CO` (stereo not given) | 10.49 | - | - |
| 12 | `[H][C@]12CN(Cc3ccc(C)c(C)c3)CC[C@@]1(O)CCN(S(=O)(=O)N(C)C)C2` | -5.021 | - | - |
| 13 | `O=C(O)C(F)(F)F.[H][C@@]12CN(C(=O)Cc3ccccc3)C[C@]1([H])OCCN2CC1CCCO1` (stereo not given in full) | 5.391 | - | - |
| 14 | `CN1CCN(c2cccc(Cl)c2CNCCS(C)(=O)=O)CC1` | 5.083 | -2.659 | 7.692 |
| 15 | `Cc1cccc(N2CCN(CCC(=O)NCc3nnc[nH]3)CC2)c1` | 20.65 | 1.343 | 13.7 |
| 16 | `N#Cc1cccc(CN2CCCC2Cn2cccn2)c1` (stereo not given) | 11.09 | 1.041 | 23.64 |
| 17 | `COc1cccc(-c2nccc(C3CCCN3C)n2)c1` (stereo not given) | 13.25 | -0.1308 | 2.817 |
| 18 | `O=C(NCc1nc[nH]n1)c1cc(COc2cccc(C(F)(F)F)c2)[nH]n1` | 6.626 | 6.352 | 31.37 |
| 19 | `Cc1ccc(O)c(C(=O)N2CCOCC2c2c(C)nn(C)c2C)c1` (stereo not given) | 17.69 | -0.3458 | 1.923 |
| 20 | `Cc1ccc(S(=O)(=O)N2CCOCC2C(N)=O)c(F)c1` (stereo not given) | 17.67 | 0.6426 | 10.71 |
| 21 | `O=C(C1CC1)N1CCC2(CCCN2Cc2ccc(F)cc2)CC1.O=C(O)C(F)(F)F` | 10.5 | - | - |
| 22 | `Cn1cc(C2CCCN2C(=O)c2ccc(NC3CC3)nc2)cn1` (stereo not given) | 19.81 | 0.5951 | 12.84 |
| 23 | `Cn1cc(NC(=O)NCc2ccsc2)ccc1=O` | -23.62 | 73.19 | 125.7 |
| 24 | `N#Cc1cc(NC(=O)C2CC=CC2)ccc1N1CCC(O)CC1` | 18.01 | 1.064 | 21.15 |
| 25 | `O=C(O)C(F)(F)F.O=C(c1nc2c(o1)CN(CC1CCC1)C2)N1CCCC1` | -14.65 | - | - |
| 26 | `COc1ccc(C2Nc3ccccc3C3=NCCCN32)cc1OC` (stereo not given) | -5.086 | -1.918 | 6.569 |
| 27 | `[H][C@]12CC[C@]([H])(CN(C(=O)N(C)C)C1)N(C(=O)CCc1n[nH]c(C)c1C)C2` | 4.191 | - | - |
| 28 | `CN1CCN(Cc2ccccc2CNC(=O)c2ccc(Br)cc2F)CC1` | -18.47 | 3.323 | 16.98 |
| 29 | `COC(=O)c1ccc(OC)c(Cn2cc(N)cn2)c1` | 9.288 | 17.28 | 50.56 |
| 30 | `CCC(NC(=O)c1cccc2cc[nH]c12)C(=O)N1CCOCC1` (stereo not given) | 22.63 | 3.753 | 8.333 |
| 31 | `CCCN(CCC)C(=O)c1cnn(C)c1C` | -29.33 | -6.491 | -4 |
| 32 | `O=C(C1CC1)N1CCC2(CCCN2Cc2ccc(F)cc2)CC1` | - | 7.381 | 23.08 |
| 33 | `O=C1NCCN1C1CCN(Cc2coc(-c3ccc(F)cc3)n2)CC1` | 33.04 | -1.101 | 9.821 |
| 34 | `Cc1n[nH]c(C)c1Sc1ccccc1NC(=O)N1CCOCC(O)C1` (stereo not given) | 23.48 | -1.085 | 4.301 |
| 35 | `CCC(C(=O)NCc1noc(Cc2cccs2)n1)n1cccn1` (stereo not given) | -37.05 | 5.485 | 14.17 |
| 36 | `Cc1cnn(CCNCc2cccnc2)c1` | 14.57 | 2.613 | 10.81 |
| 37 | `O=C1COC2(CCN(CC3CCC3)CC2)CN1c1cncnc1` | - | -0.3511 | 15.38 |
| 38 | `COc1ccccc1-c1ccc(NCc2cn3c(n2)SCC3)nn1` | 26.56 | -0.2744 | 8.046 |
| 39 | `Cc1ccc(NC(=O)c2ccc(CC3CC(=O)NC3=O)cc2)cc1O` (stereo not given) | 32.75 | 4.782 | 11.29 |
| 40 | `CC/N=c1\c(NC(=O)C(C)(C)C)c(O)oc2ccccc12` | -86.59 | 1.758 | 10.62 |
| 41 | `[H][C@@]12CCN(CCN(C)C)[C@@]1([H])CCN2C(=O)c1cccc(Cl)c1` | 54.02 | - | - |
| 42 | `CC(C)COC(C)C(=O)NCc1ccccc1` (stereo not given) | 13.02 | -0.8534 | 6.195 |
| 43 | `Cc1noc(CN(C)C(=O)c2n[nH]c(N)c2-c2ccccc2)n1` | -0.6486 | -0.4706 | 7.143 |
| 44 | `O=C(O)C(F)(F)F.[H][C@@]12CCN(C(=O)Cc3cccs3)C[C@]1([H])[C@@H](CN(C)C)OC2` | 17.47 | - | - |
| 45 | `COc1ccccc1CCN(C)C(=O)NC(C)c1nncn1C` (stereo not given) | 13.36 | 8.267 | 12.16 |
| 46 | `O=C1CC[C@H]2CN(Cc3cccc(F)c3)CC[C@H]2N1CCc1c[nH]cn1` | - | 0.4909 | 11.29 |
| 47 | `COCCOCCCNC(=O)c1cc(Cl)cc2cccnc12` | 8.815 & 10.55 | 2.007 | 10.53 |

Repeated from the top, 5 entries:

{"compound": "CC(C)N1CCOC(c2cc(CCO)[nH]n2)C1", "stereo": "stereo not given", "A": 19.2, "B": -0.5549, "C": 7.246}
{"compound": "Cc1nc(C2CCCN(C(=O)c3cc(C(C)(C)C)on3)C2)no1", "stereo": "stereo not given", "A": -6.862, "B": 1.026, "C": 1.786}
{"compound": "CCCC1(CO)CCCN(c2ncccc2F)C1", "stereo": "stereo not given", "A": 2.047, "B": 2.012, "C": 13.46}
{"compound": "CCN1Cc2ccccc2N(C(=O)C2CCC2)CCC1=O", "A": 1.632, "B": 2.214, "C": 20.41}
{"compound": "CS(=O)(=O)NCC1OCCc2cn(CC3CC3)nc21", "stereo": "stereo not given", "A": -6.553, "B": -9.446, "C": 26.32}

The values are deposited in ChEMBL (CHEMBL3988442, “University of Dundee, Small-Polar-MMV Screening Library” (2021)).